Assay results as given in the supplement of paper PMC10849652.
The other results are listed elsewhere or left out.

Amino acid sequences for entries named in this document (tags omitted). A change or cut given only in a name is not applied to a line headed by its entry.
UniProt Q5SW79: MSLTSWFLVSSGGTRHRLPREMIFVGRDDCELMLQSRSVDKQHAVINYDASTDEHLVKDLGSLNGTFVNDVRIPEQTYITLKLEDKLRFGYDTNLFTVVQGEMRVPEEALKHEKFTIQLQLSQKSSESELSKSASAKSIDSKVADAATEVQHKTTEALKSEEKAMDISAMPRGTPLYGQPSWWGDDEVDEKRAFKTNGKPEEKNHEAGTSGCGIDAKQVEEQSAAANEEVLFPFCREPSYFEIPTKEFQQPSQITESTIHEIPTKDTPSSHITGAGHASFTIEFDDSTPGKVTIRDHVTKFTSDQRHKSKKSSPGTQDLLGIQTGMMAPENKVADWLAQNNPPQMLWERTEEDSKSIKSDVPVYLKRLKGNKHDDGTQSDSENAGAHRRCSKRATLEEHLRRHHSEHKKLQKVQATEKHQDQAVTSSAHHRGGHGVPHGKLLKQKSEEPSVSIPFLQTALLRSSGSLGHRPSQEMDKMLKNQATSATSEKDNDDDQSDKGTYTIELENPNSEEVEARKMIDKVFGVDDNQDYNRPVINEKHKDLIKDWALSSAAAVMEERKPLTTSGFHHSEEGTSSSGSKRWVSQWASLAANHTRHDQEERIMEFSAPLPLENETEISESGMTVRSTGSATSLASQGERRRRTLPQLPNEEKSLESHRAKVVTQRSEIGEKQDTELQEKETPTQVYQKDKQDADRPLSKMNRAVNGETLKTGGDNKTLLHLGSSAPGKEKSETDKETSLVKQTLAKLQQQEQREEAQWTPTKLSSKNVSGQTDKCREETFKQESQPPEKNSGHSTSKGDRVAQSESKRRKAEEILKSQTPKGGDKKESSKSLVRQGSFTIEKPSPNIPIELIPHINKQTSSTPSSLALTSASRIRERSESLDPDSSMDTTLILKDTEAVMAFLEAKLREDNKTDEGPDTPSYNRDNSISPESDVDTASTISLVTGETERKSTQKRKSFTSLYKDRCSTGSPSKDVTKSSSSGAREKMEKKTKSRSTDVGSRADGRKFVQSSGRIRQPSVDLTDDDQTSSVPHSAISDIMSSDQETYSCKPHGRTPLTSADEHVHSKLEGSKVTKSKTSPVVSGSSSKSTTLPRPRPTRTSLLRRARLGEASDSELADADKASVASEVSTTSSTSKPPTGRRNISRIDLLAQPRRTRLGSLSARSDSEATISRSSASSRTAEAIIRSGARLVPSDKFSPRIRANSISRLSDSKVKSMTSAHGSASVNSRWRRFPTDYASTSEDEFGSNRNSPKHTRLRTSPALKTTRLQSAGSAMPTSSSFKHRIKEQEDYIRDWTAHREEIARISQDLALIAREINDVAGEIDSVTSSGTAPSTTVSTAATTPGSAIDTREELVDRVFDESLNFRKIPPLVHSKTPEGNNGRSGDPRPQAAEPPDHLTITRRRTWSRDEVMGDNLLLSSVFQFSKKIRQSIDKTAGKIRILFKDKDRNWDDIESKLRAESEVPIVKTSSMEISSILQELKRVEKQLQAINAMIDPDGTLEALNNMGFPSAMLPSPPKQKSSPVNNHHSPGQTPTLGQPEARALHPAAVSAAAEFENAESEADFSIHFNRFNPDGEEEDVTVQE
UniProt P57076: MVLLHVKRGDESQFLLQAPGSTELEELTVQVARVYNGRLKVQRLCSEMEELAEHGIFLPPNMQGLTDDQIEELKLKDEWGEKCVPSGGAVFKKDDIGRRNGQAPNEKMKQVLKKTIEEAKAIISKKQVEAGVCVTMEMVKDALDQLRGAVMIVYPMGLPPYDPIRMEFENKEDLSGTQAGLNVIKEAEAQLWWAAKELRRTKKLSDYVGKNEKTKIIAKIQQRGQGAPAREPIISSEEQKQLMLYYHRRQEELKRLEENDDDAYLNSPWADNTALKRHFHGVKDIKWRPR
UniProt Q96G23: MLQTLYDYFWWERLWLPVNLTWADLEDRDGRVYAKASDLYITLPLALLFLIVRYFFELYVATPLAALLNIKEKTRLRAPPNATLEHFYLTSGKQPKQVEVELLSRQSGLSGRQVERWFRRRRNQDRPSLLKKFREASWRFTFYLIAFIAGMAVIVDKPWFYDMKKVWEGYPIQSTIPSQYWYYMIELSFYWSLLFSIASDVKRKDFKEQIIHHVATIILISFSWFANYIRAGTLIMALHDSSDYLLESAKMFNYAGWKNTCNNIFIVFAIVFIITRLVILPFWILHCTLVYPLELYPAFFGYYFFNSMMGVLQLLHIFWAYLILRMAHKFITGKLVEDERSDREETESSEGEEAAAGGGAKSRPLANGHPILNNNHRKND
UniProt Q8TD26: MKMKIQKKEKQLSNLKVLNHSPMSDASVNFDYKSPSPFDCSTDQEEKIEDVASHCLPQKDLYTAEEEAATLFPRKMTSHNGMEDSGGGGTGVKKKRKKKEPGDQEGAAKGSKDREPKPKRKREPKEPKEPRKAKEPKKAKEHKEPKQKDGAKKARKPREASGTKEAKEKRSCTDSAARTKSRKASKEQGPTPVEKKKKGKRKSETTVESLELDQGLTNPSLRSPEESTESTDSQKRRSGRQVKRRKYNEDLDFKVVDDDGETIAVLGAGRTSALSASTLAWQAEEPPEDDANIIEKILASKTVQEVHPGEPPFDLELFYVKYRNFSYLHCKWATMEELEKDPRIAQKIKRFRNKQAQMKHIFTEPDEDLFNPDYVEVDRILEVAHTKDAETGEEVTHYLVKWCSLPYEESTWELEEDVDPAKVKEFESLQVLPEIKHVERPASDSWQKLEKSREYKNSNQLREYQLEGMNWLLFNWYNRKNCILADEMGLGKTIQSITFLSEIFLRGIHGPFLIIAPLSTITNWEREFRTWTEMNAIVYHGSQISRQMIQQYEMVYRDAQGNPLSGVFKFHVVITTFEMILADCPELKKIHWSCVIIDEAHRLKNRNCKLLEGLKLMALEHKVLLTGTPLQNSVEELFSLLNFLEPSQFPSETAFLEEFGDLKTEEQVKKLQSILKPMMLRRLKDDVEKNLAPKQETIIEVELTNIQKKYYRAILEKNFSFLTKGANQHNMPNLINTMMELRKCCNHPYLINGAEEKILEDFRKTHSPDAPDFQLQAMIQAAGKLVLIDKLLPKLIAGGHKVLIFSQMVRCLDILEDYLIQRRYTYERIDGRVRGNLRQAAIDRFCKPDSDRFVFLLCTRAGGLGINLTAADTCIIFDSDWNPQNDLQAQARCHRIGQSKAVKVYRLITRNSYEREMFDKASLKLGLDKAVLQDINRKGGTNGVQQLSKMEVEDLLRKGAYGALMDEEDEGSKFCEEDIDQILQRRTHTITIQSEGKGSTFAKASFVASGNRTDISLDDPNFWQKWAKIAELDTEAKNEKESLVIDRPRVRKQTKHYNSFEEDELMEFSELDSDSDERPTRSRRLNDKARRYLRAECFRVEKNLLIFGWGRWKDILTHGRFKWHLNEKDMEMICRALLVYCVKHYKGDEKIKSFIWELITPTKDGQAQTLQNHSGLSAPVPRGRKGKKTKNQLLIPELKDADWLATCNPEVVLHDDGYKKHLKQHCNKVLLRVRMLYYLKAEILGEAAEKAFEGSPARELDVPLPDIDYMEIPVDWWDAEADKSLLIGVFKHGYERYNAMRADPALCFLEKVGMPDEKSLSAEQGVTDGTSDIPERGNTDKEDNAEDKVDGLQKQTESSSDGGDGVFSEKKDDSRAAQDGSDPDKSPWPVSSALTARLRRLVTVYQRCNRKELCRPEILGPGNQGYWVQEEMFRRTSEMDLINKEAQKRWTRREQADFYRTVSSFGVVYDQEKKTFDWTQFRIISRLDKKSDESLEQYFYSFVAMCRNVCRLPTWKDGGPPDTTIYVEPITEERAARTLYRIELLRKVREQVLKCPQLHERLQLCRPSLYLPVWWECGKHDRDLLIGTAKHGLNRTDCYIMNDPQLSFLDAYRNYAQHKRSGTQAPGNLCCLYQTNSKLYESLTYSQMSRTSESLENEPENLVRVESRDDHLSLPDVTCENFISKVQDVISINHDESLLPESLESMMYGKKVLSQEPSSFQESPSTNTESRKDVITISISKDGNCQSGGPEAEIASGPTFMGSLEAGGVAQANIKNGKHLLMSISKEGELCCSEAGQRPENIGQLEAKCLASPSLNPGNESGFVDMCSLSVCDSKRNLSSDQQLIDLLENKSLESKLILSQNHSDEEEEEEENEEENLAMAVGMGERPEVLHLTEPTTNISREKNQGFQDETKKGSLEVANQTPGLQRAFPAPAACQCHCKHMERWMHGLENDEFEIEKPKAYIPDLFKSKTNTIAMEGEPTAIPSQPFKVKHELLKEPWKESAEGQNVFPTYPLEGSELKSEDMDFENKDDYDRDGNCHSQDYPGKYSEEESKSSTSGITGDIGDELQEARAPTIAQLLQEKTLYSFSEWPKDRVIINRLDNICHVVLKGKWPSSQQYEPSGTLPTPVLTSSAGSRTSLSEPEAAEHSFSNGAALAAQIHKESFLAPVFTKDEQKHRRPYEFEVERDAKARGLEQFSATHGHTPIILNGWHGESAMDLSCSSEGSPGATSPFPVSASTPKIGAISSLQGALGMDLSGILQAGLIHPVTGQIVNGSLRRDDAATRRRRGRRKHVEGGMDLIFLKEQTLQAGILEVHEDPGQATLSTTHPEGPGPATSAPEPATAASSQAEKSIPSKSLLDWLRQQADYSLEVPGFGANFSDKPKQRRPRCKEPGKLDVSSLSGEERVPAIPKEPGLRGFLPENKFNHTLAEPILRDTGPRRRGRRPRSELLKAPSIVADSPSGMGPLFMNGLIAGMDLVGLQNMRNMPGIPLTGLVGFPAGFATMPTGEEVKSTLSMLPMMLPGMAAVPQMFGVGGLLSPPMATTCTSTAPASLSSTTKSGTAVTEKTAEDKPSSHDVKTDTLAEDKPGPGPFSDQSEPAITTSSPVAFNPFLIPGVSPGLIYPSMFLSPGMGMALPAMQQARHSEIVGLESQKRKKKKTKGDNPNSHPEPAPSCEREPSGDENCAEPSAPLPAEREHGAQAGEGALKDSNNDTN
UniProt Q92879: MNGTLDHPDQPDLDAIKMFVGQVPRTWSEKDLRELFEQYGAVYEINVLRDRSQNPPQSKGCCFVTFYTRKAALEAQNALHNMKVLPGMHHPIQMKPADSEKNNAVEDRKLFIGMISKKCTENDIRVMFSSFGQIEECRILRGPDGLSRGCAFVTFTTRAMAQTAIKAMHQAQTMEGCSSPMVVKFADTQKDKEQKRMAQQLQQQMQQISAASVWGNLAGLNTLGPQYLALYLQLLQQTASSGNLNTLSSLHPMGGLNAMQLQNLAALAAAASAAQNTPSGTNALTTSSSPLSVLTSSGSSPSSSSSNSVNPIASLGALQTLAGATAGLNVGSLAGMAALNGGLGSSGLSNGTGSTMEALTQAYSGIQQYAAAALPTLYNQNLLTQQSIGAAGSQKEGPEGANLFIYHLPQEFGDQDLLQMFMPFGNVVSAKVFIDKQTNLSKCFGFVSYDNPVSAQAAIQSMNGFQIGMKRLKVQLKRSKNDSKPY
UniProt Q13112, whole entry, looked up: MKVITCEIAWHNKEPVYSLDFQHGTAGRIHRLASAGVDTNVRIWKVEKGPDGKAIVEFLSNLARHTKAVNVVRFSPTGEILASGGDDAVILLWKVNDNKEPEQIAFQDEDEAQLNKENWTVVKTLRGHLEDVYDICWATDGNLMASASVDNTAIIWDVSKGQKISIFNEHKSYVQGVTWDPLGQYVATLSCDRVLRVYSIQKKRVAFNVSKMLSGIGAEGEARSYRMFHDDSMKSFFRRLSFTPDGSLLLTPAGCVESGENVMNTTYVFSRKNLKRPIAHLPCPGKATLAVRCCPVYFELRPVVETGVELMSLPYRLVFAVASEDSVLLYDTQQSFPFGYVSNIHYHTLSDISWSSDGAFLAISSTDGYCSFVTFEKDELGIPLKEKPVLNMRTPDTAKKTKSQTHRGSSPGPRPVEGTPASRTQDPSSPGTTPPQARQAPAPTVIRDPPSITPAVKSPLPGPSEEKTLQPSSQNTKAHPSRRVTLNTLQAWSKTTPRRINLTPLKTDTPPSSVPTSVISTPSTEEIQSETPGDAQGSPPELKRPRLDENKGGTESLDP
UniProt Q9BWU1: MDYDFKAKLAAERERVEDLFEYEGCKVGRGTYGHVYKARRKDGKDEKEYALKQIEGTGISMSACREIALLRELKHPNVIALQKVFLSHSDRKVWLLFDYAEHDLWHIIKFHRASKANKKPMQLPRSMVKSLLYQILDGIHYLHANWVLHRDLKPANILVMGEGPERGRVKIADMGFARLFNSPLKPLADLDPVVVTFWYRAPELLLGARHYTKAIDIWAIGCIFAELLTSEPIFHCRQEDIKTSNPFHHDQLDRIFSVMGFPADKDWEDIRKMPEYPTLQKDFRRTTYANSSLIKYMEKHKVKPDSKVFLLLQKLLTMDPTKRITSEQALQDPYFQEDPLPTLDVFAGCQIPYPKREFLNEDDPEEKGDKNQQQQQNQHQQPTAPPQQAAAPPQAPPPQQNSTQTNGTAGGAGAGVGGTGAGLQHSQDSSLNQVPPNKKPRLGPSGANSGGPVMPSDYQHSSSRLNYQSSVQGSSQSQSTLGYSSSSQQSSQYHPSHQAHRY

Columns and labels:
Test in all cases: log2 fold change, soluble protein after heating vs DMSO (PISA); higher = thermal stabilisation; K562 cells, 10 uM, 30 min; active = over 0.2 and 3.5 SD of the protein, either way, in both replicates (recomputed)
[1] = compound: NC(=O)Nc1cc(-c2cccc(F)c2)sc1C(=O)N[C@H]1CCCNC1
Outline: (§1)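 Values are thermal stability changes relative to control samples and are taken from duplicates. They are stated as log2 fold changes. Before quantification by TMTpro 16plex LC-MS/MS with equalised channel sums, K562 cells at 2×10^6 cells/mL were treated with 10 μM compound for 30 min, heated in aliquots for 3 min across 48°C-58°C, pooled, extracted in PBS with 0.5% NP-40 at 4°C, and centrifuged at 21,000xg for 90 min to give the soluble supernatant.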

[2] = compound: NC(=O)c1cnc(N[C@@H]2CCCC[C@@H]2N)nc1Nc1cccc(-n2nccn2)c1
Outline: as §1

[3] = compound: NC1(c2ccc(-c3nc4ccn5c(=O)[nH]nc5c4cc3-c3ccccc3)cc2)CCC1
Outline: as §1

[4] = compound: NCC(=O)Nc1ccc(-n2nc(C(F)(F)F)cc2-c2ccc3c(ccc4ccccc43)c2)cc1
Outline: as §1

entinostat = compound: Nc1ccccc1NC(=O)c1ccc(CNC(=O)OCc2cccnc2)cc1 [entinostat]
Outline: as §1

vorinostat = compound: O=C(CCCCCCC(=O)Nc1ccccc1)NO [vorinostat]
Outline: as §1

citarinostat = compound: O=C(CCCCCCNC(=O)c1cnc(N(c2ccccc2)c2ccccc2Cl)nc1)NO [citarinostat]
Outline: as §1

silmitasertib = compound: O=C(O)c1ccc2c(c1)nc(Nc1cccc(Cl)c1)c1ccncc12 [silmitasertib]
Outline: as §1

[5] = compound: O=C1NC(=O)C(c2cnc3ccccn23)=C1c1cn2c3c(cc(F)cc13)CN(C(=O)N1CCCCC1)CC2
Outline: as §1

[6] = compound: c1cc(OCCN2CCCCC2)cc(-c2n[nH]c3ccc(-c4nnc[nH]4)cc23)c1
Outline: as §1

Measured: log2 fold change

CEP170 (UniProt Q5SW79)
inactive: [1] 0.001 | [2] 0.007 | [3] 0.111 | [4] 0.015 | entinostat 0.005 | vorinostat -0.002 | citarinostat -0.038 | silmitasertib -0.024 | [5] 0.167 | [6] -0.173

CDCP1 (UniProt Q9H5V8)
inactive: [1] -0.086 | [2] 0.061 | [3] 0.105 | [4] 0.066 | entinostat -0.152 | vorinostat -0.041 | citarinostat -0.056 | silmitasertib -0.008 | [5] -0.039 | [6] -0.174

CEPT1 (UniProt Q9Y6K0)
inactive: [1] -0.065 | [2] -0.101 | [3] -0.215 | [4] -0.156 | entinostat 0.065 | vorinostat -0.078 | citarinostat -0.023 | silmitasertib -0.014 | [5] -0.054 | [6] -0.085

CHKB (UniProt Q9Y259)
inactive: [1] 0.123 | [2] 0.097 | [3] -0.023 | [4] -0.236 | entinostat -0.025 | vorinostat 0.105 | citarinostat 0.066 | silmitasertib -0.033 | [5] -0.002 | [6] 0.013

CDV3 (UniProt Q9UKY7)
inactive: [1] 0.092 | [2] -0.001 | [3] 0.048 | [4] 0.053 | entinostat 0.03 | vorinostat -0.029 | citarinostat -0.028 | silmitasertib -0.037 | [5] 0.065 | [6] 0.019

CDIPT (UniProt O14735)
inactive: [1] -0.106 | [2] 0.132 | [3] 0.024 | [4] 0.051 | entinostat 0.111 | vorinostat 0.14 | citarinostat -0.033 | silmitasertib 0.038 | [5] -0.016 | [6] -0.052

CDK5RAP3 isoform 4 (UniProt Q96JB5)
inactive: [1] -0.025 | [2] -0.029 | [3] -0.092 | [4] -0.097 | entinostat 0.056 | vorinostat 0.04 | citarinostat 0.065 | silmitasertib -0.004 | [5] -0.04 | [6] 0.019

CFAP298 (UniProt P57076)
inactive: [1] -0.077 | [2] -0.085 | [3] 0.056 | [4] -0.089 | entinostat 0.088 | vorinostat -0.018 | citarinostat -0.043 | silmitasertib 0.08 | [5] 0.011 | [6] -0.047

CDC42BPB (UniProt Q9Y5S2)
inactive: [1] -0.205 | [2] 0.054 | [3] -0.254 | [4] -0.012 | entinostat 0.155 | vorinostat 0.06 | citarinostat 0.085 | silmitasertib -0.087 | [5] -0.057 | [6] -0.201

CERS2 (UniProt Q96G23)
inactive: [1] -0.015 | [2] 0 | [3] -0.103 | [4] -0.019 | entinostat 0.04 | vorinostat 0.057 | citarinostat 0.035 | silmitasertib -0.018 | [5] 0.027 | [6] -0.087

CDK2 (UniProt P24941)
inactive: [1] 0.016 | [2] -0.037 | [3] -0.062 | [4] -0.023 | entinostat -0.002 | vorinostat 0.012 | citarinostat 0.022 | silmitasertib -0.065 | [5] -0.112

CHD6 (UniProt Q8TD26)
inactive: [1] -0.105 | [2] 0.655 | [3] 0.236 | [4] 0.381 | entinostat -0.013 | vorinostat 0.174 | citarinostat 0.046 | silmitasertib 0.405 | [5] 0.232 | [6] -0.13

CELF1 isoform 4 (UniProt Q92879)
inactive: [1] 0.051 | [2] 0.02 | [3] -0.097 | [4] -0.051 | entinostat 0.113 | vorinostat 0.03 | citarinostat 0.072 | silmitasertib 0.057 | [5] 0.077 | [6] -0.115

Pulled one by one from the entries so far (2):
CDCP1 (UniProt Q9H5V8)
inactive: [1] -0.086 | [2] 0.061 | [3] 0.105 | [4] 0.066 | entinostat -0.152 | vorinostat -0.041 | citarinostat -0.056 | silmitasertib -0.008 | [5] -0.039 | [6] -0.174

CHKB (UniProt Q9Y259)
inactive: [1] 0.123 | [2] 0.097 | [3] -0.023 | [4] -0.236 | entinostat -0.025 | vorinostat 0.105 | citarinostat 0.066 | silmitasertib -0.033 | [5] -0.002 | [6] 0.013

Next records

CDC42EP1 (UniProt Q00587)
inactive: [1] -0.272 | [2] -0.258 | [3] -0.399 | [4] -0.063 | entinostat 0.1 | vorinostat 0.158 | citarinostat 0.108 | silmitasertib -0.04 | [5] -0.118 | [6] -0.138

CHMP1A (UniProt Q9HD42)
inactive: [1] 0.014 | [2] -0.006 | [3] -0.169 | [4] -0.017 | entinostat 0.002 | vorinostat 0.004 | citarinostat 0.05 | silmitasertib -0.013 | [5] -0.003 | [6] -0.007

CDYL (UniProt Q9Y232)
inactive: [1] 0.003 | [2] -0.011 | [3] 0 | [4] 0.037 | entinostat -0.063 | vorinostat -0.059 | citarinostat -0.154 | silmitasertib 0.003 | [5] 0.004 | [6] 0.068

CETN2 (UniProt P41208)
inactive: [1] -0.051 | [2] 0.024 | [3] 0.102 | [4] 0.076 | entinostat -0.033 | vorinostat -0.122 | citarinostat -0.1 | silmitasertib -0.028 | [5] -0.027 | [6] -0.091

CHAF1B (UniProt Q13112)
inactive: [1] -0.009 | [2] -0.042 | [3] -0.004 | [4] -0.02 | entinostat -0.033 | vorinostat -0.018 | citarinostat -0.001 | silmitasertib 0.011 | [5] -0.017 | [6] -0.026

CDK13 (UniProt Q14004)
inactive: [1] -0.032 | [2] -0.007 | [3] -0.063 | [4] 0.042 | entinostat 0 | vorinostat 0.018 | citarinostat 0.013 | silmitasertib -0.018 | [5] 0.035 | [6] -0.196

CDK5 (UniProt Q00535)
inactive: [1] -0.045 | [2] -0.01 | [3] -0.065 | [4] -0.082 | entinostat 0.016 | vorinostat 0.007 | citarinostat 0.06 | silmitasertib 0.016 | [5] -0.1 | [6] -0.05

CDK9 isoform 2 (UniProt P50750)
inactive: [1] -0.05 | [2] -0.038 | [3] -0.057 | [4] 0.22 | entinostat 0.005 | vorinostat 0.102 | citarinostat -0.002 | silmitasertib -0.015 | [5] 0.152 | [6] -0.084

CHD3 isoform 3 (UniProt Q12873)
inactive: [1] 0.023 | [2] -0.152 | [3] -0.113 | [4] -0.013 | entinostat 0.036 | vorinostat 0.101 | citarinostat 0.057 | silmitasertib 0.154 | [5] 0.057 | [6] -0.101

CEP170B (UniProt Q9Y4F5)
inactive: [1] 0.019 | [2] 0.022 | [3] -0.002 | [4] 0.033 | entinostat 0.029 | vorinostat -0.021 | citarinostat -0.062 | silmitasertib -0.031 | [5] 0.082 | [6] -0.294

CDK19 (UniProt Q9BWU1)
inactive: [1] -0.131 | [2] -0.135 | [3] -0.093 | [4] -0.018 | entinostat -0.085 | vorinostat 0.016 | citarinostat -0.265 | silmitasertib 0.327 | [5] 0.16 | [6] -0.089

CHERP (UniProt Q8IWX8)
inactive: [1] 0.015 | [2] -0.054 | [3] -0.096 | [4] -0.095 | entinostat 0.129 | vorinostat 0.099 | citarinostat -0.001 | silmitasertib 0.03 | [5] -0.121 | [6] -0.042

CELF2 isoform 3 (UniProt O95319)
inactive: [1] -0.047 | [2] 0.009 | [3] 0.017 | [4] -0.017 | entinostat -0.048 | vorinostat -0.044 | citarinostat 0 | silmitasertib 0.051 | [5] 0.102 | [6] -0.021

CHCHD3 (UniProt Q9NX63)
inactive: [1] -0.042 | [2] -0.053 | [3] -0.055 | [4] -0.029 | entinostat -0.009 | vorinostat -0.049 | citarinostat -0.034 | silmitasertib -0.021 | [5] -0.052 | [6] 0.009
